Data as given in PubChem BioAssay AID1259308 (NCATS, 2017).
In all, the deposit lists about 59,000 reagents; shown is a part drawn at random. About 1,510 of them (2.6%) count as active. 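Calls use total luciferase alone and ignore viability, so some active siRNAs may act by altering cell number.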 A number with no mark means an inactive call. The numbers tell different reagents against one gene apart. Further read-outs or replicates are left out here.

- Test: 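Candidate targets for better recombinant protein yield in mammalian cells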 (primary screen)
- Cells: human HEK293 embryonic kidney cells stably expressing firefly luciferase (HEK-CMV-Luc2-Hygro)
- Reagents: single siRNA against human genes, 0.8 pmol siRNA per well
- Timing: 72 h
- Measurement: 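Luciferase light (ONE-Glo) measured on one replicate plate set and viability (CellTiter-Glo) on the other, scaled to a negative control siRNA, with robust z-scores and luciferase per cell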
- Direction: total luciferase, z-score: higher = more reporter protein produced
- Hit rule: 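An siRNA counts as active if its total luciferase robust z-score exceeds 3; genes with two or more such siRNAs out of three were retested with fresh siRNAs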
- Meaning of the calls: active = raised luciferase; inactive = no rise

Depletion of TFE3 (transcription factor binding to IGHM enhancer 3) #1 gave: total luciferase, z-score -0.136.
TFE3 (transcription factor binding to IGHM enhancer 3) #2 scored total luciferase, z-score -0.516.
Silencing of TFE3 (transcription factor binding to IGHM enhancer 3) #3 gave: total luciferase, z-score -0.217.
With knock-down of DAZAP1 (DAZ associated protein 1) #1, the screen gave total luciferase, z-score 0.0707.
DAZAP1 (DAZ associated protein 1) #2 showed total luciferase, z-score 0.376.
After knock-down of DAZAP1 (DAZ associated protein 1) #3 the results were total luciferase, z-score -0.976.
PBX3 (PBX homeobox 3) #1 showed total luciferase, z-score -0.503.
For PBX3 (PBX homeobox 3) #2, the values are total luciferase, z-score 0.713.
PBX3 (PBX homeobox 3) #3 scored total luciferase, z-score -1.59.
With knock-down of NOD1 (nucleotide binding oligomerization domain containing 1) #1, the screen gave total luciferase, z-score 0.972.
After knock-down of NOD1 (nucleotide binding oligomerization domain containing 1) #2 the results were total luciferase, z-score 0.137.
For NOD1 (nucleotide binding oligomerization domain containing 1) #3 the deposit lists total luciferase, z-score 1.45.
Depletion of FJX1 (four-jointed box kinase 1) #1 resulted in: total luciferase, z-score -0.789.
After knock-down of FJX1 (four-jointed box kinase 1) #2, the screen gave total luciferase, z-score -1.01.
FJX1 (four-jointed box kinase 1) #3 scored total luciferase, z-score 0.391.
ROBO4 (roundabout guidance receptor 4) #1 scored total luciferase, z-score 0.774.
ROBO4 (roundabout guidance receptor 4) #2 showed total luciferase, z-score -0.544.
Silencing of ROBO4 (roundabout guidance receptor 4) #3 resulted in: total luciferase, z-score -0.404.
With knock-down of USP35 (ubiquitin specific peptidase 35) #1 the results were total luciferase, z-score -2.12.
After knock-down of USP35 (ubiquitin specific peptidase 35) #2 the results were total luciferase, z-score -0.668.
With knock-down of USP35 (ubiquitin specific peptidase 35) #3 the results were total luciferase, z-score 0.144.
With knock-down of CINP (cyclin dependent kinase 2 interacting protein) #1, the screen gave total luciferase, z-score -1.12.
With knock-down of CINP (cyclin dependent kinase 2 interacting protein) #2, the screen gave total luciferase, z-score 1.21.
Depletion of CINP (cyclin dependent kinase 2 interacting protein) #3 came out at: total luciferase, z-score -0.183.
Knock-down of ALDH3B1 (aldehyde dehydrogenase 3 family member B1) #1 resulted in: total luciferase, z-score -1.46.
Knock-down of ALDH3B1 (aldehyde dehydrogenase 3 family member B1) #2 gave: total luciferase, z-score 0.947.
Silencing of ALDH3B1 (aldehyde dehydrogenase 3 family member B1) #3 came out at: total luciferase, z-score 1.88.
Knock-down of ALKBH6 (alkB homolog 6, nucleotide demethylase) #1 came out at: total luciferase, z-score 0.981.
Against ALKBH6 (alkB homolog 6, nucleotide demethylase) #2, the values are total luciferase, z-score 1.51.
ALKBH6 (alkB homolog 6, nucleotide demethylase) #3 gave total luciferase, z-score 0.797.
After knock-down of MPC1L #1 the results were total luciferase, z-score -1.87.
For MPC1L #2, the entry reads total luciferase, z-score -0.396.
After knock-down of MPC1L #3 the results were total luciferase, z-score -0.682.

No new results follow: an excerpt of the list.
NOD1 (nucleotide binding oligomerization domain containing 1) #1 | total luciferase, z-score: 0.972
NOD1 (nucleotide binding oligomerization domain containing 1) #2 | total luciferase, z-score: 0.137
NOD1 (nucleotide binding oligomerization domain containing 1) #3 | total luciferase, z-score: 1.45
FJX1 (four-jointed box kinase 1) #1 | total luciferase, z-score: -0.789
